Values as published with doi:10.1371/journal.pone.0140310, rounded.

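Human melanoma cells were exposed to two drugs together for 72 h in 1,536-well plates and read by automated microscopy after fixing and staining. Each value is the cleaved-PARP-positive fraction of nuclei relative to DMSO-treated wells, in %, so that 100 equals the control and higher values mean more apoptosis. Concentrations were fixed for each drug; these are the higher of two levels. The file gives one value for each pair and line, without errors, so small differences may be noise. Basal and induced levels differ widely between cell lines.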
This is part of the screen, not chosen by result.
An entry leaves out what has no value listed here.

Every entry is a combination with GW2580 at 5 µM: COc1ccc(COc2ccc(Cc3cnc(N)nc3N)cc2OC)cc1

- CC(C)C[C@H](NC(=O)[C@H](Cc1ccccc1)NC(=O)c1cnccn1)B(O)O at 0.005 µM : MZ2-MEL: 38500; COLO 800: 110; WM3526: 2440; UACC-62: 610; WM3619: 1990; A375: 56.0
- C[As](C)SC[C@H](NC(=O)CC[C@H](N)C(=O)O)C(=O)NCC(=O)O at 2 µM : MZ2-MEL: 28.0; COLO 800: 154; WM3526: 129; UACC-62: 89.6; WM3619: 83.0; A375: 62.2
- Cc1cn(-c2cc(NC(=O)c3ccc(C)c(Nc4nccc(-c5cccnc5)n4)c3)cc(C(F)(F)F)c2)cn1 at 1 µM : MZ2-MEL: 23.9; COLO 800: 136; WM3526: 180; UACC-62: 119; WM3619: 131; A375: 156
- O=C(O)C(=O)Nc1sc2c(c1C(=O)O)CCNC2 at 8.33 µM : MZ2-MEL: 32.8; COLO 800: 79.7; WM3526: 61.3; UACC-62: 60.8; WM3619: 125; A375: 39.2
- CO[C@@H]1[C@H](N(C)C(=O)c2ccccc2)C[C@H]2O[C@]1(C)n1c3ccccc3c3c4c(c5c6ccccc6n2c5c31)C(=O)NC4 at 0.4 µM : MZ2-MEL: 142; COLO 800: 164; WM3526: 125; UACC-62: 104; WM3619: 153; A375: 114
- Nc1ncn([C@H]2C[C@H](O)[C@@H](CO)O2)c(=O)n1 at 0.5 µM : COLO 800: 89.0; WM3526: 83.6; UACC-62: 380; WM3619: 108; A375: 123
- C[C@]12O[C@H](C[C@]1(O)CO)n1c3ccccc3c3c4c(c5c6ccccc6n2c5c31)CNC4=O at 0.02 µM : MZ2-MEL: 120; COLO 800: 146; WM3526: 188; UACC-62: 151; WM3619: 123; A375: 159
- CCCCCCCCCCCC1=C(O)C(=O)C=C(O)C1=O at 6 µM : MZ2-MEL: 24.4; COLO 800: 44.0; WM3526: 59.9; UACC-62: 58.1; WM3619: 77.0; A375: 93.4
- c1cc(-c2cnn3cc(-c4ccc(OCCN5CCCCC5)cc4)cnc23)ccn1 at 2 µM : MZ2-MEL: 85.2; COLO 800: 170; WM3526: 148; UACC-62: 143; WM3619: 118; A375: 16.6
- Cn1cc(/C=C2\C(=O)Nc3cccnc32)c2ccccc21 at 2 µM : MZ2-MEL: 99.6; COLO 800: 127; WM3526: 105; UACC-62: 90.7; WM3619: 107; A375: 40.4
- NC(=O)Nc1cc(-c2cccc(F)c2)sc1C(=O)N[C@H]1CCCNC1 at 0.1 µM : MZ2-MEL: 72.2; COLO 800: 36.9; WM3526: 1400; UACC-62: 142; WM3619: 550; A375: 590
- O=C(Nc1ccccc1)c1cc([N+](=O)[O-])ccc1Cl at 10 µM : MZ2-MEL: 79.1; COLO 800: 90.5; WM3526: 122; UACC-62: 91.7; WM3619: 183; A375: 57.5
- C/C(O)=C(\C#N)C(=O)Nc1cc(Br)ccc1Br at 10 µM : MZ2-MEL: 21.7; COLO 800: 227; WM3526: 40.9; UACC-62: 221; WM3619: 101; A375: 161
- O=C(/C=C/c1cccnc1)NCCCCC1CCN(C(=O)c2ccccc2)CC1 at 0.05 µM : MZ2-MEL: 992; COLO 800: 78.4; WM3526: 113; UACC-62: 117; WM3619: 114; A375: 43.6
- Cc1nc(Nc2ncc(C(=O)Nc3c(C)cccc3Cl)s2)cc(N2CCN(CCO)CC2)n1 at 0.02 µM : MZ2-MEL: 107; COLO 800: 146; WM3526: 48.3; UACC-62: 157; WM3619: 123; A375: 87.0
- Cc1cc(Nc2cc(N3CCN(C)CC3)nc(Sc3ccc(NC(=O)C4CC4)cc3)n2)n[nH]1 at 0.03 µM : MZ2-MEL: 290; COLO 800: 294; WM3526: 185; UACC-62: 99.4; WM3619: 164; A375: 101
- O=c1[nH]nc(Sc2ncc([N+](=O)[O-])s2)n1-c1ccc2c(c1)OCCO2 at 1 µM : MZ2-MEL: 107; COLO 800: 76.7; WM3526: 54.9; UACC-62: 167; WM3619: 90.9; A375: 59.4
- C#Cc1cccc(Nc2ncnc3cc(OCCOC)c(OCCOC)cc23)c1 at 4 µM : MZ2-MEL: 131; COLO 800: 196; WM3526: 92.7; UACC-62: 133; WM3619: 133; A375: 69.2
- CS(=O)(=O)CCNCc1ccc(-c2ccc3ncnc(Nc4ccc(OCc5cccc(F)c5)c(Cl)c4)c3c2)o1 at 4 µM : MZ2-MEL: 86.3; COLO 800: 85.6; WM3526: 148; UACC-62: 458; WM3619: 232; A375: 80.8
- COc1ccc2c(c1)CCC1C2CCC2(C)C(NCCCCCCN3C(=O)C=CC3=O)CCC12 (stereo not shown) at 2 µM : MZ2-MEL: 48.9; COLO 800: 54.2; WM3526: 53.3; UACC-62: 172; WM3619: 89.2; A375: 124
- CCCS(=O)(=O)Nc1ccc(F)c(C(=O)c2c[nH]c3ncc(Cl)cc23)c1F at 0.4 µM : MZ2-MEL: 131; COLO 800: 87.6; WM3526: 257; UACC-62: 387; WM3619: 116; A375: 364
- COc1cc([C@@H]2c3cc4c(cc3[C@@H](O[C@@H]3O[C@@H]5CO[C@@H](C)O[C@H]5[C@H](O)[C@H]3O)[C@H]3COC(=O)[C@H]23)OCO4)cc(OC)c1O at 0.1 µM : MZ2-MEL: 133; COLO 800: 190; WM3526: 172; UACC-62: 66.2; WM3619: 116; A375: 126
- NC(=O)c1ccc(N(C(N)=O)c2c(F)cccc2F)nc1-c1ccc(F)cc1F at 2 µM : MZ2-MEL: 74.0; COLO 800: 76.9; WM3526: 92.8; UACC-62: 129; WM3619: 80.8; A375: 48.4
- O=C(O)c1ccc(-c2c[nH]c3ncc(-c4ccccc4)cc23)cc1C1CCCC1 at 0.8 µM : MZ2-MEL: 132; COLO 800: 80.9; WM3526: 219; UACC-62: 105; WM3619: 105; A375: 89.0

Once more, the final 2:

Partner,MZ2-MEL,COLO 800,WM3526,UACC-62,WM3619,A375
NC(=O)c1ccc(N(C(N)=O)c2c(F)cccc2F)nc1-c1ccc(F)cc1F at 2 µM,74.0,76.9,92.8,129,80.8,48.4
O=C(O)c1ccc(-c2c[nH]c3ncc(-c4ccccc4)cc23)cc1C1CCCC1 at 0.8 µM,132,80.9,219,105,105,89.0